Source: paper PMC12649483, “Novel Chalcone Derivatives as Anti-Leishmania infantum Agents with Potential Synergistic Activity and In Silico Insights” (Antibiotics, 2025)

Assays:
[1] = tested on: L. infantum promastigotes; assay: In vitro leishmanicidal activity (MTT) in promastigote forms; type: cell-based, Leishmania infantum; details: CC50 (PBMCs) / IC50 promastigotes
Method: (§1) Promastigote forms of L. infantum [IOC/L0579 (MHOM/BR/1974/PP75)] were cultured in Schneider’s medium (pH 7.0), supplemented with 20% fetal bovine serum (FBS), 1% human male urine, and 1% antibiotic solution (penicillin 200 U/mL and streptomycin 0.1 mg/mL), and maintained at 26 ± 1 °C (B.O.D SL 200—SOLAB, Piracicaba, SP, BR). The generation of extracellular axenic amastigote forms of L. infantum was based on protocols previously described by Debrabant et al. (2004), with modifications that included the use of Schneider’s medium adjusted to pH 5.5 and incubation at 37 °C (CO2 Series 3517-2, Cornelius, OR, USA).
The antileishmanial activity of compounds against metacyclic promastigote populations was assessed using the MTT (ACROS, Livingston, NJ, USA) assay for cell viability analysis. […]
In 96-well plates, initial screening was performed with serial dilutions (400 to 3.12 μM) of compounds 3a–c and 4a–c in duplicate. […] Following 72 h-treatment of promastigotes and 24 h-treatment of amastigotes (accounting for the stationary phase culture characteristics), MTT was added for 4 h, followed by overnight incubation with sodium dodecyl sulfate (SDS) for spectrophotometric (Biotek model ELx800, Winooski, VT, USA) reading at 540 nm.

[2] = tested on: L. infantum axenic amastigotes; assay: In vitro leishmanicidal activity (MTT) in axenic amastigote forms; type: cell-based, Leishmania infantum; details: CC50 (PBMCs) / IC50 amastigotes
Method: as §1
In 96-well plates, initial screening was performed with serial dilutions (400 to 3.12 μM) of compounds 3a–c and 4a–c in duplicate. […] AmB was used as a positive control due to its established leishmanicidal activity, tested at concentrations ranging from 10 to 0.078 μM. Following 72 h-treatment of promastigotes and 24 h-treatment of amastigotes (accounting for the stationary phase culture characteristics), MTT was added for 4 h, followed by overnight incubation with sodium dodecyl sulfate (SDS) for spectrophotometric (Biotek model ELx800, Winooski, VT, USA) reading at 540 nm.

COc1ccc(C(=O)/C=C/c2ccc(OCC(=O)NC3CCCCC3)cc2)cc1 [Compound 4b, (E)-N-Cyclohexyl-2-(4-(3-(4-methoxyphenyl)-3-oxoprop-1-enyl)phenoxy)acetamide]
SI (promastigotes) [1]: 72
SI (amastigotes) [2]: 148.6

Cc1ccc(C(=O)/C=C/c2ccc(OCC(=O)NC3CCCCC3)cc2)cc1 [Compound 4a, (E)-N-Cyclohexyl-2-(4-(3-oxo-3-p-tolylprop-1-enyl)phenoxy)acetamide]
SI (promastigotes) [1]: 12.2
SI (amastigotes) [2]: 8
